Results published in publication PMC7819943, “Rice protein-binding microarrays: a tool to detect cis-acting elements near promoter regions in rice”.
Some of the results follow.

Amino acid sequences for entries named in this document (tags omitted).
UniProt Q0JBA9, entry or part of it: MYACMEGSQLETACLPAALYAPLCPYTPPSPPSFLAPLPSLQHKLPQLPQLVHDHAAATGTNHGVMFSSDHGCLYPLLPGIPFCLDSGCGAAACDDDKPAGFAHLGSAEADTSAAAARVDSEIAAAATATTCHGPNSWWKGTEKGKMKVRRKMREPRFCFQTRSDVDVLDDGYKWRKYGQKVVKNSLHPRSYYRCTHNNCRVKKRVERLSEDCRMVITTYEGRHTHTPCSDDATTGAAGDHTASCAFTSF

What follows are sequences tested against OsWRKY34 (Oryza sativa, UniProt Q0JBA9 1-250) (assay: protein-binding microarray (RPBM); PBS, 2% BSA, 51.3 ng/ul salmon testes DNA, 50 uM zinc acetate, 200 nM TF, 25 C, 1 h; high values mean tight binding). Details: protein: recombinant; tags: N-terminal polyhistidine and DsRed monomer fusion (pET32a); label: CyDye5-dUTP incorporated in the synthesized complementary strand; 3' TTTTT single-stranded linker to array surface; dsDNA, one strand shown.
How it was run: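 Per-feature fluorescence intensity (arbitrary units), read on an Axon 4000B scanner, is the binding signal. Transcription factors carrying an N-terminal polyhistidine tag and DsRed fusion were expressed in E. coli BL21-CodonPlus and purified on Ni–NTA. A custom Agilent array, made double-stranded by primer extension with Cy5-dUTP and blocked with 2% BSA, was incubated with 200 nM protein in PBS, 2% BSA, salmon testes DNA and 50 µM zinc acetate at 25 °C for 1 h and then washed.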
“TACCCAACACGCATCCTGGTCGATTCCTCCGAGCAAAAATCGGAGTCACCTAGTGCAG” was tested, and the binding signal was 8540 fluorescence intensity (a.u.). “TCATAATGCATCAATCTATTACTTTAGCTATCTATTTATACGGAGTCACCTAGTGCAG” was tested, and the binding signal was 9530 fluorescence intensity (a.u.). For “AAATTTGTTATTTTTGTTTCGAATTATATAATTCGAATTTCGGAGTCACCTAGTGCAG”, the binding signal was 9450 fluorescence intensity (a.u.). For “ACTATCGCTGCCACGACCATTTCTAATCGCCAAGATCGTACGGAGTCACCTAGTGCAG”, the binding signal was 8970 fluorescence intensity (a.u.). With “GTTGTGTATTAAATTTAATTTGTTGGCTCGTGTTAAATTACGGAGTCACCTAGTGCAG” the binding signal was 10100 fluorescence intensity (a.u.). For “ACCTCAATGCCGTGCCGCTGCTCTGCTCCCAGTCGCCTACCGGAGTCACCTAGTGCAG”, the binding signal was 8590 fluorescence intensity (a.u.). With “CATACTTTTCCAGTACTTGGCTTAACTATTCTTCTCTTAGCGGAGTCACCTAGTGCAG” the binding signal was 8220 fluorescence intensity (a.u.). In the case of “ATGTGTAATTACTTCGAAACTTGAGTCTGCTTCTATTTTTCGGAGTCACCTAGTGCAG”, the binding signal is reported as 10700 fluorescence intensity (a.u.). In the case of “CTCCATGCGCTCACGTTCCATCGCGTGGTCCACGCCCTTCCGGAGTCACCTAGTGCAG”, the binding signal is reported as 9570 fluorescence intensity (a.u.). “GTGGGTGGAGGAAGCGGATAGGGAGAGGGGTGTGGGGCGGCGGAGTCACCTAGTGCAG” was tested, and the binding signal was 16000 fluorescence intensity (a.u.). In the case of “TCATGTATCAATGTATGCTTATATTTTCAAAACTTTGTAGCGGAGTCACCTAGTGCAG”, the binding signal is reported as 8790 fluorescence intensity (a.u.). For “GCTGAGAGAGTGCTCATTTCCAAGTTTTCAACCACCCTCTCGGAGTCACCTAGTGCAG”, the binding signal was 9370 fluorescence intensity (a.u.). “GCACGCTTTTCAAACTGATAAACGGTACGTTTCGTTCTATCGGAGTCACCTAGTGCAG” was tested, and the binding signal was 8040 fluorescence intensity (a.u.). With “TAGTATATGATTTTCGGGTCTGAGAAGTTAATTCGTACTCCGGAGTCACCTAGTGCAG” the binding signal was 9390 fluorescence intensity (a.u.). For “AAGAAATCTCCCGTTTGGTCTCGTTCTCGTTGTCTCCTCCCGGAGTCACCTAGTGCAG”, the binding signal was 9100 fluorescence intensity (a.u.). “CTCCAAATTTCATCTGAGGCTCAGTTTAGTCCTTGATATTCGGAGTCACCTAGTGCAG” was tested, and the binding signal was 8600 fluorescence intensity (a.u.). For “TCTTCTACGTAAACACTCTAACGAGATCTTACACCTGAACCGGAGTCACCTAGTGCAG”, the binding signal was 9210 fluorescence intensity (a.u.). “TATATATATATATATATATATATACCCACGTGAGGACGTACGGAGTCACCTAGTGCAG” was tested, and the binding signal was 15800 fluorescence intensity (a.u.). With “CTTTTCTTGTTGTCTTGTTTGCCCTATTTCATATAAATTTCGGAGTCACCTAGTGCAG” the binding signal was 11100 fluorescence intensity (a.u.). “TCTTTCACGTTTTCGTCCATAGGATCTTGCATCAAGATTCCGGAGTCACCTAGTGCAG” was tested, and the binding signal was 9060 fluorescence intensity (a.u.). “GCTGGATACATGCTCCAGCTTAGTTAGTTGTTGGGTATTTCGGAGTCACCTAGTGCAG” was tested, and the binding signal was 9720 fluorescence intensity (a.u.). With “GGTTTTGAGATGGCATCCAAGCTTAACTTGTTTTTTTTCCCGGAGTCACCTAGTGCAG” the binding signal was 9320 fluorescence intensity (a.u.). In the case of “TCTGCTATTGTACTTGCTCTAATTGGGTAGTTGGGTTGAACGGAGTCACCTAGTGCAG”, the binding signal is reported as 13500 fluorescence intensity (a.u.). “CTAACTATACTATAAACCTGTAATTTTTGCTTTTACTTTTCGGAGTCACCTAGTGCAG” was tested, and the binding signal was 9940 fluorescence intensity (a.u.). In the case of “TTAATTCTGTGCTAATTGTGTTTATTGTTTTGCGTGCAGCCGGAGTCACCTAGTGCAG”, the binding signal is reported as 8100 fluorescence intensity (a.u.). For “CTATCTTAATCTCATCATCAATTCCCTCGTGTAAACTCCCCGGAGTCACCTAGTGCAG”, the binding signal was 8420 fluorescence intensity (a.u.). “CGCGCCGTCGACCCACCGCCCGCCGGCCCACCGCCCCGGGCGGAGTCACCTAGTGCAG” was tested, and the binding signal was 8280 fluorescence intensity (a.u.). With “CATTCCTGTGTTTTTCCTGTGTTTCACAATCCTCTGTTTTCGGAGTCACCTAGTGCAG” the binding signal was 11600 fluorescence intensity (a.u.). For “TAAAACTAGTCATCCCTTCATTTTATATTATAAGTTGTTTCGGAGTCACCTAGTGCAG”, the binding signal was 8290 fluorescence intensity (a.u.). For “CCCGTATATCTGGTTTTGCGGTTCGAGGACATTTTTTTTACGGAGTCACCTAGTGCAG”, the binding signal was 9100 fluorescence intensity (a.u.). For “AGATATCCGGTATTGTGGTTTAGGGATAGGGATGGCAGTTCGGAGTCACCTAGTGCAG”, the binding signal was 8550 fluorescence intensity (a.u.). “ATGCCTCCTTATTTGAAGATTTGCTTTTCTTATTGTTCAACGGAGTCACCTAGTGCAG” was tested, and the binding signal was 8970 fluorescence intensity (a.u.). “CTTACTGTTCTTCGTGATCTGTGCACTCCTAATCTCTCCTCGGAGTCACCTAGTGCAG” was tested, and the binding signal was 12000 fluorescence intensity (a.u.). “TCGGGGAAGTCTATTTCTTATCACTTCCTTCTTTTCTTTTCGGAGTCACCTAGTGCAG” was tested, and the binding signal was 9440 fluorescence intensity (a.u.). In the case of “TCCCAGGTTCTACCCTTCTAGTCATCGTCGTTTGTGGCCTCGGAGTCACCTAGTGCAG”, the binding signal is reported as 11400 fluorescence intensity (a.u.). With “AGTTTCTTTCTTACTTGCTCCTCTACTGCAAACTGTTGTTCGGAGTCACCTAGTGCAG” the binding signal was 8140 fluorescence intensity (a.u.). “TCTCTTCTCCTTCACATTTCTTCTATATATACCCAGTCTCCGGAGTCACCTAGTGCAG” was tested, and the binding signal was 9040 fluorescence intensity (a.u.). For “GTGTCCAACTTTGACTATCCGTTTTATATGAAATTTTTTTCGGAGTCACCTAGTGCAG”, the binding signal was 11400 fluorescence intensity (a.u.). In the case of “GCCATGTAATTGTTACCCACCCGTGTCCATTTGCAATTGACGGAGTCACCTAGTGCAG”, the binding signal is reported as 8240 fluorescence intensity (a.u.). With “AGGTGGTGGTGGAGGTGGAGGTGGCGGTGGAGGTGGAGGGCGGAGTCACCTAGTGCAG” the binding signal was 38600 fluorescence intensity (a.u.). “TCCCAAGTTATTTTTGATTGCTTCATTCCTACCTCTCAAACGGAGTCACCTAGTGCAG” was tested, and the binding signal was 10300 fluorescence intensity (a.u.). With “AGGGCTTTTGACTGTGACATGTATACTCTGTAATTACAAGCGGAGTCACCTAGTGCAG” the binding signal was 8030 fluorescence intensity (a.u.).
